Assay results reported in publication PMC9830501.
No constants are given. Whether binding was seen depends on the method and setting. Binding seen in cells or lysates may run through a third protein. Some results given as binding are weak or reduced against the parent protein; the word gives no strength.

Sequences of proteins named here, by UniProt entry; tags and fusion partners are left off.
UniProt Q9JK66: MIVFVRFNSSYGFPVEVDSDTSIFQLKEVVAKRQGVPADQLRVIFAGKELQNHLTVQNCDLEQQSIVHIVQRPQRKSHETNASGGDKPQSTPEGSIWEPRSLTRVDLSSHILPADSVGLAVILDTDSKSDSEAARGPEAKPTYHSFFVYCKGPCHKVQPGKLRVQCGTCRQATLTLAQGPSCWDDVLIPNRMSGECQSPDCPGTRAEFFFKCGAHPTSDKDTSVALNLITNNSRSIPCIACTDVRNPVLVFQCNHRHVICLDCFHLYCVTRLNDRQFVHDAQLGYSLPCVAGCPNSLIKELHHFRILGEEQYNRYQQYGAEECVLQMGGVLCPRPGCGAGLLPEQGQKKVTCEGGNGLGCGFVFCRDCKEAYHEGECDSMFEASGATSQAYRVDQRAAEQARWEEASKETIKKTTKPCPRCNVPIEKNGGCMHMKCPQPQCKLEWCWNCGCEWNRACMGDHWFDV

Tests used:
Assay in all cases: co-IP; endogenous proteins; whole cell lysate of rat NP cells treated with 0 or 20 ng/ml IL-1β for 48h; IP with control IgG, anti-Sesn2, anti-Parkin or anti-Sqstm1 antibody, protein A agarose, 4°C; immunoblot
[1] = target: T1, Sestrin 2 (Sesn2) (rat (endogenous in NP cells))
T1 sequence: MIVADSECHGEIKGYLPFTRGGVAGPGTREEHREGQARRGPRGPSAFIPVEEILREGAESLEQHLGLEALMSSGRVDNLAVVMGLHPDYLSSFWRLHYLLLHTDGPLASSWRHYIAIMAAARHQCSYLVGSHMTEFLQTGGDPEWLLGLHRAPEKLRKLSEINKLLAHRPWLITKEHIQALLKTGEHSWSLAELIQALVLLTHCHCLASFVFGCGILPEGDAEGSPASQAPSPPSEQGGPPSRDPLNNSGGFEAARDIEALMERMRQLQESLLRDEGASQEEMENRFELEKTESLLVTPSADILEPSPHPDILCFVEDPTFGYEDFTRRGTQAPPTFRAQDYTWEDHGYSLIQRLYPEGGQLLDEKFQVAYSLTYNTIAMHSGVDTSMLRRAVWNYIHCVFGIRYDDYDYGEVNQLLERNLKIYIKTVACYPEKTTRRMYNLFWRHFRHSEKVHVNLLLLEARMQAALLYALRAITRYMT

[2] = target: Sqstm1 (rat (endogenous in NP cells)) (UniProt O08623)
[3] = target: Parkin (rat (endogenous in NP cells)) (UniProt Q9JK66)

In the case of Parkin (from UniProt Q9JK66 1-465), the binding [1] is reported as “binds” and the binding [2] is reported as “no binding”.

Sqstm1 (from UniProt O08623 1-439) was tested, and the binding [3] was “no binding” and the binding [1] was “binds”.
